Data as given in the supplement of paper PMC8728848.
This is one part of the list.

Assays:
Experiment in all cases: glycan array binding signal (z-score within array); higher = stronger binding
Settings in all cases: glycan notation: IUPAC condensed, linker removed
[1] = target: Fuc(a1-2)Gal(b1-4)GlcNAc(b1-3)Gal(b1-4)GlcNAc(b1-3)Gal(b1-4)GlcNAc
Outline: (§1)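 From the Consortium for Functional Glycomics database, 3228 arrays were curated, keeping only those whose protein sequence was available. Binding is given as a within-array Z-score averaged across arrays sharing a protein sequence and across linkers. Negative Z-scores can be read as non-binding.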

[2] = target: Fuc(a1-2)Gal(b1-4)GlcNAc(b1-3)GalNAc
Outline: as §1

[3] = target: Fuc(a1-2)Gal(b1-4)GlcNAc(b1-3)[Fuc(a1-2)Gal(b1-4)GlcNAc(b1-6)]GalNAc
Outline: as §1

[4] = target: Fuc(a1-2)Gal(b1-4)GlcNAc(b1-3)[Fuc(a1-3)[Gal(b1-4)]GlcNAc(b1-6)]Gal(b1-4)Glc
Outline: as §1

[5] = target: Fuc(a1-2)Gal(b1-4)GlcNAc(b1-6)GalNAc
Outline: as §1

[6] = target: Fuc(a1-2)Gal(b1-4)GlcNAc6S
Outline: as §1

[7] = target: Fuc(a1-2)Gal(b1-4)[Fuc(a1-3)]GlcNAc
Outline: as §1

[8] = target: Fuc(a1-2)Gal(b1-4)[Fuc(a1-3)]GlcNAc(b1-2)Man(a1-3)[Fuc(a1-2)Gal(b1-4)[Fuc(a1-3)]GlcNAc(b1-2)Man(a1-6)]Man(b1-4)GlcNAc(b1-4)[Fuc(a1-6)]GlcNAc
Outline: as §1

[9] = target: Fuc(a1-2)Gal(b1-4)[Fuc(a1-3)]GlcNAc(b1-2)[Fuc(a1-2)Gal(b1-4)[Fuc(a1-3)]GlcNAc(b1-4)]Man(a1-3)[Fuc(a1-2)Gal(b1-4)[Fuc(a1-3)]GlcNAc(b1-2)Man(a1-6)]Man(b1-4)GlcNAc(b1-4)GlcNAc
Outline: as §1

[10] = target: Fuc(a1-2)Gal(b1-4)[Fuc(a1-3)]GlcNAc(b1-3)Gal(b1-4)[Fuc(a1-3)]GlcNAc
Outline: as §1

[11] = target: Fuc(a1-2)Gal(b1-4)[Fuc(a1-3)]GlcNAc(b1-3)Gal(b1-4)[Fuc(a1-3)]GlcNAc(b1-3)Gal(b1-4)[Fuc(a1-3)]GlcNAc
Outline: as §1

[12] = target: Fuc(a1-2)Gal(b1-4)[Fuc(a1-3)]GlcNAc(b1-3)GalNAc
Outline: as §1

[13] = target: Fuc(a1-2)Gal(b1-4)[Fuc(a1-3)]GlcNAc(b1-3)[Neu5Ac(a2-6)Gal(b1-4)GlcNAc(b1-6)]Gal(b1-4)Glc
Outline: as §1

[14] = target: Fuc(a1-2)Gal3S(b1-4)GlcNAc
Outline: as §1

[15] = target: Fuc(a1-2)Gal6S(b1-3)GlcNAc
Outline: as §1

[16] = target: Fuc(a1-2)Gal6S(b1-3)GlcNAc6S
Outline: as §1

Fuc(a1-2)Gal6S(b1-4)Glc = target: Fuc(a1-2)Gal6S(b1-4)Glc
Outline: as §1

[17] = target: Fuc(a1-2)Gal6S(b1-4)Glc6S
Outline: as §1

Fuc(a1-2)[Gal(a1-3)]Gal = target: Fuc(a1-2)[Gal(a1-3)]Gal
Outline: as §1

[18] = target: Fuc(a1-2)[Gal(a1-3)]Gal(b1-3)GalNAc
Outline: as §1

[19] = target: Fuc(a1-2)[Gal(a1-3)]Gal(b1-3)GalNAc(b1-3)Gal(a1-4)Gal(b1-4)Glc
Outline: as §1

[20] = target: Fuc(a1-2)[Gal(a1-3)]Gal(b1-3)GlcNAc
Outline: as §1

[21] = target: Fuc(a1-2)[Gal(a1-3)]Gal(b1-3)GlcNAc(b1-2)Man(a1-3)[Fuc(a1-2)[Gal(a1-3)]Gal(b1-3)GlcNAc(b1-2)Man(a1-6)]Man(b1-4)GlcNAc(b1-4)GlcNAc
Outline: as §1

[22] = target: Fuc(a1-2)[Gal(a1-3)]Gal(b1-3)GlcNAc(b1-2)Man(a1-3)[Fuc(a1-2)[Gal(a1-3)]Gal(b1-3)GlcNAc(b1-2)Man(a1-6)]Man(b1-4)GlcNAc(b1-4)[Fuc(a1-6)]GlcNAc
Outline: as §1

[23] = target: Fuc(a1-2)[Gal(a1-3)]Gal(b1-3)GlcNAc(b1-3)GalNAc
Outline: as §1

[24] = target: Fuc(a1-2)[Gal(a1-3)]Gal(b1-3)GlcNAc(b1-6)GalNAc
Outline: as §1

[25] = target: Fuc(a1-2)[Gal(a1-3)]Gal(b1-4)Glc
Outline: as §1

[26] = target: Fuc(a1-2)[Gal(a1-3)]Gal(b1-4)GlcNAc
Outline: as §1

[27] = target: Fuc(a1-2)[Gal(a1-3)]Gal(b1-4)GlcNAc(b1-2)Man
Outline: as §1

[28] = target: Fuc(a1-2)[Gal(a1-3)]Gal(b1-4)GlcNAc(b1-2)Man(a1-3)[Fuc(a1-2)[Gal(a1-3)]Gal(b1-4)GlcNAc(b1-2)Man(a1-6)]Man(b1-4)GlcNAc(b1-4)GlcNAc
Outline: as §1

B1: PX14343F-bfa-562-20-562 (Bacteroides fragilis) (protein)
chain: CDDFLDSFPQDTVTNENFWKSKEDADKVLVDIYASLLPKDAIFFDEAMSDNAYLVWDWWGGAQQVANGSYTTSGEIPTNRWNGSYEVIRKCWFLLEGIEKIEDISEQDKNKIIGETYFMLAYNYYVLTSYFGDVPLVTKTLAIPESKQLVRTPKAEVVDYAINKLKEAAVMLEGLSQEKGRVTADACRFLIARMYLYNGDYSNVLETVKLLEGKYQLYREGDTPYEDLFSGVAENSCEVILSVVCDKRVGEIYTSHGGNGIMLLKGITGEDPYRGVTPSGSLVDAYPMADGRLIHEAGSSYDPKKPYEGRDPRFYQSIVYPTGQIKYLDVETGTVKERLYDPEDPTTVPEHQYNYSQPSATGYMWNKYIDYSVYAMNSVWDCTNDIIVFRYADVLLMKAEALLQTKGESAKEEVCNLIDQLRDRCSCGRVHRENYNSKDELMELLKNERRIELANEGLRYMDLIRWKDAEKNTIVTGVGLTGQMYGAYMRKDGVGKDDKTVDVDNTPRRYIETRYFNASKGYLFPIPQKERDLNPNLTQNPNW
[1]
  glycan array binding signal (z-score): -0.301
[2]
  glycan array binding signal (z-score): -1.07
[3]
  glycan array binding signal (z-score): 0.316
[4]
  glycan array binding signal (z-score): -0.504
[5]
  glycan array binding signal (z-score): 0.141
[6]
  glycan array binding signal (z-score): -0.073
[7]
  glycan array binding signal (z-score): 0.085
[8]
  glycan array binding signal (z-score): -0.43
[9]
  glycan array binding signal (z-score): -0.3
[10]
  glycan array binding signal (z-score): -0.862
[11]
  glycan array binding signal (z-score): 0.172
[12]
  glycan array binding signal (z-score): -0.396
[13]
  glycan array binding signal (z-score): -0.542
[14]
  glycan array binding signal (z-score): -1.05
[15]
  glycan array binding signal (z-score): -0.004
[16]
  glycan array binding signal (z-score): 1.48
Fuc(a1-2)Gal6S(b1-4)Glc
  glycan array binding signal (z-score): -0.173
[17]
  glycan array binding signal (z-score): 0.012
Fuc(a1-2)[Gal(a1-3)]Gal
  glycan array binding signal (z-score): 0.618
[18]
  glycan array binding signal (z-score): 0.323
[19]
  glycan array binding signal (z-score): 0.051
[20]
  glycan array binding signal (z-score): -0.317
[21]
  glycan array binding signal (z-score): 1.27
[22]
  glycan array binding signal (z-score): 0.655
[23]
  glycan array binding signal (z-score): -0.362
[24]
  glycan array binding signal (z-score): 0.287
[25]
  glycan array binding signal (z-score): -0.458
[26]
  glycan array binding signal (z-score): -0.1
[27]
  glycan array binding signal (z-score): -0.421
[28]
  glycan array binding signal (z-score): 1.23
